# The list shows a part of the results.
# B1: SfaEH (Escherichia coli), Q1RDG5 (protein)
# chain: LLCRNNQTGQVFNSGDTSFRVNVSPVVQYDKSISVLDLSQLVSCQNEDSTGQNYDYLKILKGSGFSPALDTKTYGRLDFTSRPTGYARQLPLQFDLQVTEAFYQYGVWKPFPAKLYLYPAPGVFGKVINNGDLLATLYVNKFSTKGQEAGERNFTWRFYATNDVYIQTGTCRVSSNNVKVDLPSYPGGPVTVPLTVRCDQTQSVSYTLSGPVTGSGNTVFANTAASGSGGVGIQLSDNVGPVPAGQPRSLGQVGSSPVSLGLKASYALTGQASPTPGAVQSVINVTFSYN
# Assays:
# Experiment in all cases: glycan array binding signal (z-score within array); higher = stronger binding
# Conditions in all cases: glycan notation: IUPAC condensed, linker removed
# [1] = biological target: Gal(b1-4)GlcNAc(b1-6)GalNAc
# How it was run: (§1)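 Columns mapping to the same glycan were averaged after glycan names were converted to IUPAC-condensed notation. The data come from 3228 arrays in the Consortium for Functional Glycomics database, limited to those with an available protein sequence. Binding is reported as a within-array Z-score averaged across arrays of one protein sequence and across linkers.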
# [2] = biological target: Gal(b1-4)GlcNAc(b1-6)[Gal(b1-3)]GalNAc
# How it was run: as §1
# [3] = biological target: Gal(b1-4)GlcNAc(b1-6)[Gal(b1-4)GlcNAc(b1-3)]GalNAc
# How it was run: as §1
# Gal(b1-4)GlcNAc6P = biological target: Gal(b1-4)GlcNAc6P
# How it was run: as §1
# Gal(b1-6)Gal = biological target: Gal(b1-6)Gal
# How it was run: as §1
# Gal3S(b1-3)GalNAc = biological target: Gal3S(b1-3)GalNAc
# How it was run: as §1
# Gal3S(b1-3)GlcNAc = biological target: Gal3S(b1-3)GlcNAc
# How it was run: as §1
# [4] = biological target: Gal3S(b1-3)[Fuc(a1-4)]GlcNAc
# How it was run: as §1
# Gal3S(b1-4)Glc = biological target: Gal3S(b1-4)Glc
# How it was run: as §1
# Gal3S(b1-4)Glc6S = biological target: Gal3S(b1-4)Glc6S
# How it was run: as §1
# Gal3S(b1-4)GlcNAc = biological target: Gal3S(b1-4)GlcNAc
# How it was run: as §1
# [5] = biological target: Gal3S(b1-4)[Fuc(a1-3)]Glc6S
# How it was run: as §1
# [6] = biological target: Gal3S(b1-4)[Fuc(a1-3)]GlcNAc
# How it was run: as §1
# [7] = biological target: Gal3S(b1-4)[Fuc(a1-3)]GlcNAc6S
# How it was run: as §1
# Gal3S4S(b1-4)GlcNAc = biological target: Gal3S4S(b1-4)GlcNAc
# How it was run: as §1
# Gal3S6S(b1-4)GlcNAc = biological target: Gal3S6S(b1-4)GlcNAc
# How it was run: as §1
# Gal3S6S(b1-4)GlcNAc6S = biological target: Gal3S6S(b1-4)GlcNAc6S
# How it was run: as §1
# Gal4S(b1-4)GlcNAc = biological target: Gal4S(b1-4)GlcNAc
# How it was run: as §1
# Gal4S6S(b1-4)GlcNAc = biological target: Gal4S6S(b1-4)GlcNAc
# How it was run: as §1
# Gal6P(b1-4)GlcNAc = biological target: Gal6P(b1-4)GlcNAc
# How it was run: as §1
# Gal6S(b1-3)GlcNAc = biological target: Gal6S(b1-3)GlcNAc
# How it was run: as §1
# Gal6S(b1-3)GlcNAc6S = biological target: Gal6S(b1-3)GlcNAc6S
# How it was run: as §1
# Gal6S(b1-4)Glc = biological target: Gal6S(b1-4)Glc
# How it was run: as §1
# Gal6S(b1-4)Glc6S = biological target: Gal6S(b1-4)Glc6S
# How it was run: as §1
# Gal6S(b1-4)GlcNAc = biological target: Gal6S(b1-4)GlcNAc
# How it was run: as §1
# Gal6S(b1-4)GlcNAc6S = biological target: Gal6S(b1-4)GlcNAc6S
# How it was run: as §1
# GalNAc(a1-3)Gal = biological target: GalNAc(a1-3)Gal
# How it was run: as §1
# GalNAc(a1-3)GalNAc = biological target: GalNAc(a1-3)GalNAc
# How it was run: as §1
# [8] = biological target: GalNAc(a1-3)GalNAc(a1-3)Gal(a1-4)Gal(b1-4)GlcNAc
# How it was run: as §1
# [9] = biological target: GalNAc(a1-3)GalNAc(b1-3)Gal(a1-4)Gal(b1-4)Glc
# How it was run: as §1
# GalNAc(b1-3)Gal = biological target: GalNAc(b1-3)Gal
# How it was run: as §1
# [10] = biological target: GalNAc(b1-3)Gal(a1-4)Gal(b1-4)GlcNAc
# How it was run: as §1
# [11] = biological target: GalNAc(b1-3)Gal(a1-4)Gal(b1-4)GlcNAc(b1-3)Gal(b1-4)Glc
# How it was run: as §1
# [12] = biological target: GalNAc(b1-3)Gal(a1-6)Gal(b1-4)Glc
# How it was run: as §1
# GalNAc(b1-3)GalNAc = biological target: GalNAc(b1-3)GalNAc
# How it was run: as §1
# GalNAc(b1-3)GlcNAc = biological target: GalNAc(b1-3)GlcNAc
# How it was run: as §1
# GalNAc(b1-4)Gal(b1-4)Glc = biological target: GalNAc(b1-4)Gal(b1-4)Glc
# How it was run: as §1
# GalNAc(b1-4)GlcNAc = biological target: GalNAc(b1-4)GlcNAc
# How it was run: as §1
binder,measurement,setting,value
B1,glycan array binding signal (z-score),[1],0.377
same,glycan array binding signal (z-score),[2],-0.21
same,glycan array binding signal (z-score),[3],-0.401
same,glycan array binding signal (z-score),Gal(b1-4)GlcNAc6P,-0.278
same,glycan array binding signal (z-score),Gal(b1-6)Gal,-0.448
same,glycan array binding signal (z-score),Gal3S(b1-3)GalNAc,0.006
same,glycan array binding signal (z-score),Gal3S(b1-3)GlcNAc,0.475
same,glycan array binding signal (z-score),[4],-0.608
same,glycan array binding signal (z-score),Gal3S(b1-4)Glc,-0.825
same,glycan array binding signal (z-score),Gal3S(b1-4)Glc6S,0.221
same,glycan array binding signal (z-score),Gal3S(b1-4)GlcNAc,-0.041
same,glycan array binding signal (z-score),[5],1.91
same,glycan array binding signal (z-score),[6],0.441
same,glycan array binding signal (z-score),[7],1.1
same,glycan array binding signal (z-score),Gal3S4S(b1-4)GlcNAc,0.087
same,glycan array binding signal (z-score),Gal3S6S(b1-4)GlcNAc,2.12
same,glycan array binding signal (z-score),Gal3S6S(b1-4)GlcNAc6S,1.59
same,glycan array binding signal (z-score),Gal4S(b1-4)GlcNAc,-0.285
same,glycan array binding signal (z-score),Gal4S6S(b1-4)GlcNAc,0.149
same,glycan array binding signal (z-score),Gal6P(b1-4)GlcNAc,-0.826
same,glycan array binding signal (z-score),Gal6S(b1-3)GlcNAc,1.39
same,glycan array binding signal (z-score),Gal6S(b1-3)GlcNAc6S,-0.513
same,glycan array binding signal (z-score),Gal6S(b1-4)Glc,-0.148
same,glycan array binding signal (z-score),Gal6S(b1-4)Glc6S,1.04
same,glycan array binding signal (z-score),Gal6S(b1-4)GlcNAc,-1.14
same,glycan array binding signal (z-score),Gal6S(b1-4)GlcNAc6S,0.134
same,glycan array binding signal (z-score),GalNAc(a1-3)Gal,0.611
same,glycan array binding signal (z-score),GalNAc(a1-3)GalNAc,0.831
same,glycan array binding signal (z-score),[8],0.006
same,glycan array binding signal (z-score),[9],-0.309
same,glycan array binding signal (z-score),GalNAc(b1-3)Gal,0.414
same,glycan array binding signal (z-score),[10],-0.067
same,glycan array binding signal (z-score),[11],0.127
same,glycan array binding signal (z-score),[12],-1.16
same,glycan array binding signal (z-score),GalNAc(b1-3)GalNAc,0.821
same,glycan array binding signal (z-score),GalNAc(b1-3)GlcNAc,0.005
same,glycan array binding signal (z-score),GalNAc(b1-4)Gal(b1-4)Glc,-0.244
same,glycan array binding signal (z-score),GalNAc(b1-4)GlcNAc,-0.125

# An excerpt of these results, with bars between the fields.
binder | measurement | setting | value
B1 | glycan array binding signal (z-score) | GalNAc(a1-3)Gal | 0.611
same | glycan array binding signal (z-score) | GalNAc(a1-3)GalNAc | 0.831

# From the supplement of paper PMC8728848
